PubChem BioAssay AID686943 – Drosophila RNAi Screening Center | 2013

Purpose: 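Knockdowns that increase or decrease active ERK after insulin receptor stimulation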 (primary screen)
Cell system: Drosophila S2R+ haemocyte-like cells expressing YFP-tagged ERK (Rolled)
Reagents: long dsRNA against Drosophila genes
Challenge: insulin stimulation versus unstimulated cells; dose and duration not given
Detection: 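Per-plate z-scores of phospho-ERK immunostaining normalised to YFP-tagged ERK, measured with and without insulin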
Reading the numbers: replicate 1, z-score of dpERK with insulin and replicate 2, z-score of dpERK with insulin: higher = more active ERK per ERK-YFP after insulin; replicate 1, z-score of dpERK under basal conditions: higher = more basal active ERK per ERK-YFP
The deposit covers about 23,000 reagents; below is an unselected part of those that have a named target and a result. 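Extra replicates exist only for a retested subset of genes; insulin dose and duration not given; both raised and lowered dpERK matter.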 The numbers tell different reagents against one gene apart. Not all columns of the deposit are shown. The record does not give: the amount of reagent, the time to read-out.

Gene | reagent no. | replicate 1, z-score of dpERK with insulin | replicate 2, z-score of dpERK with insulin | replicate 1, z-score of dpERK under basal conditions
CG13739 | 1 | -5.56 | -4.93 | -0.38
Arc42 | 1 | 0.36 | -0.62 | 2.14
Arc42 | 2 | 0.3 | 0.53 | -0.15
Tsp42Eo | 1 | -1.55 | 0.1 | -0.37
Jheh2 | 1 | 0.27 | -0.15 | -0.33
mil | 1 | 0.57 | -0.03 | -0.03
Mrp4 | 1 | 1.03 | -0.37 | 0.11
sif | 1 | -0.06 | -0.04 | -0.04
sif | 2 | 1.6 | 1.07 | -0.55
sif | 3 | -0.08 | -0.28 | -0.45
sif | 4 | 1.2 | 0.44 | 0.61
Lrpprc2 | 1 | -0.19 | -0.39 | -0.09
CAH8 | 1 | -0.01 | 0.91 | -0.07
Tsp42Eg | 1 | -0.49 | -0.11 | 0.4
Cpr49Aa | 1 | 0.7 | 0.09 | -0.65
CG3589 | 1 | 0.29 | 0.22 | 0.43
e(r) | 1 | 1.23 | 0.4 | -0.57
Or23a | 1 | -0.77 | 0.05 | 0.15
Csk | 1 | -0.88 | -0.02 | 0.59
Csk | 2 | -1.65 | 0.64 | -0.44
CG33281 | 1 | -0.29 | 0.06 | -0.14
Nurf-38 | 1 | -0.23 | -0.01 | 0.59
mei-P26 | 1 | -6.81 | -4.62 | -2.43
CG14259 | 1 | -0.52 | -0.06 | -0.23
CG6790 | 1 | -1.18 | 0.53 | -1.37
mRpL51 | 1 | -0.32 | -0.83 | 0.07
CG9915 | 1 | -0.55 | -0.08 | -0.98
CG9915 | 2 | 0.79 | -0.3 | 0.38
Nf-YA | 1 | -0.89 | -0.39 | -1.24
MED18 | 1 | 0.07 | -0.86 | -0.11
CG3632 | 1 | -0.46 | -0.47 | 0.23
CG3632 | 2 | -0.42 | -0.11 | 0.33
CG13559 | 1 | -0.1 | -0.13 | -0.39
CG14232 | 1 | 0.87 | 0.42 | 1.01
Taldo | 1 | 0.24 | 0.26 | -0.53
Rgk1 | 1 | -0.12 | 0.26 | 0.51
Rgk1 | 2 | 1.39 | 1.97 | 1.12
Rgk1 | 3 | 1.18 | 0.54 | 1.5
Rgk1 | 4 | 0.67 | 0.18 | -0.08
Rgk1 | 5 | -5.29 | -3.49 | -4.23

4 consecutive entries from above:
Gene | reagent no. | replicate 1, z-score of dpERK with insulin | replicate 2, z-score of dpERK with insulin | replicate 1, z-score of dpERK under basal conditions
Arc42 | 2 | 0.3 | 0.53 | -0.15
Tsp42Eo | 1 | -1.55 | 0.1 | -0.37
Jheh2 | 1 | 0.27 | -0.15 | -0.33
mil | 1 | 0.57 | -0.03 | -0.03
